According to the supplement of paper PMC10849652:
Some of the results follow.

The chains behind the UniProt entries cited, without tags or fusion partners. Where a name states a change or a piece, a line headed by the entry shows the natural chain unless it says otherwise.
UniProt Q9ULQ0: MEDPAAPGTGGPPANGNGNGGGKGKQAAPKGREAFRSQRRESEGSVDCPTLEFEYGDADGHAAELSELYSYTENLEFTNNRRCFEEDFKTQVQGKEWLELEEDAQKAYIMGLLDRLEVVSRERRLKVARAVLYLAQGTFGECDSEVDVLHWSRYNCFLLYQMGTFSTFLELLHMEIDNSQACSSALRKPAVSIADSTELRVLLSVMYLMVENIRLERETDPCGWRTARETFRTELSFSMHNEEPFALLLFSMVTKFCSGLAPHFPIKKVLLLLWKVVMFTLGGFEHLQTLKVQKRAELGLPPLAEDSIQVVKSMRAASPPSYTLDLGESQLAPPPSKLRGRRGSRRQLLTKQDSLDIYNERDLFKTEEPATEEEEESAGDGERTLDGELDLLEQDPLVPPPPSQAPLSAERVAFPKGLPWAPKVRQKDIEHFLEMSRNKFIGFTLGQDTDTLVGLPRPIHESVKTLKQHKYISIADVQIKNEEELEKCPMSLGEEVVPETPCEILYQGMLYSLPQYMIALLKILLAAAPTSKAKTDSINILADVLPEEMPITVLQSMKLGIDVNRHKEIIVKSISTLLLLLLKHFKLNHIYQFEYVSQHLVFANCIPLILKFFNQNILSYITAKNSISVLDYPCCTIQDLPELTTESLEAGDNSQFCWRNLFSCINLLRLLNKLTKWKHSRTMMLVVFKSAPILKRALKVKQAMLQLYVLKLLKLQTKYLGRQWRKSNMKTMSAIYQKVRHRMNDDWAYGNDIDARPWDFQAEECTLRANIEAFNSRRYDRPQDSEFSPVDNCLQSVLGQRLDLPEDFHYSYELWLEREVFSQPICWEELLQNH
UniProt P46977: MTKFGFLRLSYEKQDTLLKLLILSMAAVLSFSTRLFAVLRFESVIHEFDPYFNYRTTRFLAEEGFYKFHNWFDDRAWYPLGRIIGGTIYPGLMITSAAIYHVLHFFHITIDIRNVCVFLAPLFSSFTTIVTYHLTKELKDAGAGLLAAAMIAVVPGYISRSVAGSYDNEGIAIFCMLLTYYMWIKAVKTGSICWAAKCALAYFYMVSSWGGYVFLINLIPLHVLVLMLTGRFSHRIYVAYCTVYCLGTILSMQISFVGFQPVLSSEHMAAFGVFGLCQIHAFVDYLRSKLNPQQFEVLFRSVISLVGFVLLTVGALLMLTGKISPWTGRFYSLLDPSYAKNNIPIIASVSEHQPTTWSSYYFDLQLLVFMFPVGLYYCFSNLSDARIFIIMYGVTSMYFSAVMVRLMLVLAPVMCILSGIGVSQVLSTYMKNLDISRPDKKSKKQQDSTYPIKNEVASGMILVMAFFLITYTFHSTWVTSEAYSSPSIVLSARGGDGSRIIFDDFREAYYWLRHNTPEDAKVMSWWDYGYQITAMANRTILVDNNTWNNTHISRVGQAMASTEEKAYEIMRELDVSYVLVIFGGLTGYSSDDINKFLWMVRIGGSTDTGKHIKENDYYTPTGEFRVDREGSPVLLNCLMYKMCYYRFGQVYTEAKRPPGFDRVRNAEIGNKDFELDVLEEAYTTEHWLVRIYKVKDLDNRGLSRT
UniProt Q92804: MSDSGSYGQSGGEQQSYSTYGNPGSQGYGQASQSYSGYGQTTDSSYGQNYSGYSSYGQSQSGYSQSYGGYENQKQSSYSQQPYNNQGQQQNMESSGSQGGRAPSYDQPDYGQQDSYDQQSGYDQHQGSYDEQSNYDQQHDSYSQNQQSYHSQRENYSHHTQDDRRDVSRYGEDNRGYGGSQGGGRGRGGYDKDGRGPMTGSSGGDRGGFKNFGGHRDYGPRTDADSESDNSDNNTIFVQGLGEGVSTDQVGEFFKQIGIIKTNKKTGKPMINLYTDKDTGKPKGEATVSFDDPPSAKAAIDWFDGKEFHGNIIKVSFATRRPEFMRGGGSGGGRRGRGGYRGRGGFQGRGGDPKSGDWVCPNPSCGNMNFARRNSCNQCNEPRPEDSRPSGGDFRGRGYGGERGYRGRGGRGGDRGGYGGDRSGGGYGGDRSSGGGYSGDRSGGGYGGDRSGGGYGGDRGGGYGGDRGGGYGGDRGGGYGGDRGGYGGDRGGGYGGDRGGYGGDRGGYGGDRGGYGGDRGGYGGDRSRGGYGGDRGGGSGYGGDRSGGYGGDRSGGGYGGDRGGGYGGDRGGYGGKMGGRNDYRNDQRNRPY
UniProt Q8NBJ7: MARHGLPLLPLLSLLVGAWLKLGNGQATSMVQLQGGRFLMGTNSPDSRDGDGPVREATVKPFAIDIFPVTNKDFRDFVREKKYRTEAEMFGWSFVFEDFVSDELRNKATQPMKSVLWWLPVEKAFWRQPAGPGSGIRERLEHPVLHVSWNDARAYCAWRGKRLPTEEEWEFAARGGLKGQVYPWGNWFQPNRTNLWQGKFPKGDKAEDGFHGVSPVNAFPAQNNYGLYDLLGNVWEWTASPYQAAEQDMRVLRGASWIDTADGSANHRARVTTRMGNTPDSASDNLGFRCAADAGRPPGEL
UniProt Q6P1X5, whole entry, looked up: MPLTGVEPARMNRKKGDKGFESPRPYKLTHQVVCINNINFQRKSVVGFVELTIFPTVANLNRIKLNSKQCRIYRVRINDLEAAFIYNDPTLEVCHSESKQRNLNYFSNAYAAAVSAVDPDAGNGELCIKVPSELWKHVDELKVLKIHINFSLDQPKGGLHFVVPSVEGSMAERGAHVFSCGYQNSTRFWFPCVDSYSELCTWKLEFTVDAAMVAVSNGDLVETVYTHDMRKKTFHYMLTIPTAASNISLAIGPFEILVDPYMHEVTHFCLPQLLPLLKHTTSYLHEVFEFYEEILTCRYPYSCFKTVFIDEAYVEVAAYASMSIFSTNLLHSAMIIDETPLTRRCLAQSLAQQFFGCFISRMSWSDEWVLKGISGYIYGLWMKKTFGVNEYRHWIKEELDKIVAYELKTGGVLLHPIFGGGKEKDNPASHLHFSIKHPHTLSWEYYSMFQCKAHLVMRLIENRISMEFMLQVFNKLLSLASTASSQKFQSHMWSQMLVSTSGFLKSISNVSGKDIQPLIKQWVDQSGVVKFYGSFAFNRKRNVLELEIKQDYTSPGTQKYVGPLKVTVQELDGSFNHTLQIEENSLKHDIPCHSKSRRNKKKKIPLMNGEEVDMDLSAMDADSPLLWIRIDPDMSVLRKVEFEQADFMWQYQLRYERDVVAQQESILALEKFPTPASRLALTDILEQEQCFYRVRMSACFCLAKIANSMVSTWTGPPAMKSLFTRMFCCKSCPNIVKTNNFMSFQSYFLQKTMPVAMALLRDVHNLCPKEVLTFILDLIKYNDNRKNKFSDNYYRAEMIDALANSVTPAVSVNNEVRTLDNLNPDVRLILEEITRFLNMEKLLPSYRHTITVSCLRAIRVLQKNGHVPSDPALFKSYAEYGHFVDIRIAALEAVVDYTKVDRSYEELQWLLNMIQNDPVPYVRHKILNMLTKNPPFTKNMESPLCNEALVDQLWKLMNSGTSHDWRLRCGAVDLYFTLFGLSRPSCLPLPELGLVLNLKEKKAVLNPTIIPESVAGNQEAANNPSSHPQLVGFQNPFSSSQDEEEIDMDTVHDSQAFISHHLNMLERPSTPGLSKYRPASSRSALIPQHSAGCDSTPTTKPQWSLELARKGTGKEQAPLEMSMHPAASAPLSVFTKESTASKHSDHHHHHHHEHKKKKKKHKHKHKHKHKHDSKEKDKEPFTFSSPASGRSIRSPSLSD
UniProt Q9UMZ2: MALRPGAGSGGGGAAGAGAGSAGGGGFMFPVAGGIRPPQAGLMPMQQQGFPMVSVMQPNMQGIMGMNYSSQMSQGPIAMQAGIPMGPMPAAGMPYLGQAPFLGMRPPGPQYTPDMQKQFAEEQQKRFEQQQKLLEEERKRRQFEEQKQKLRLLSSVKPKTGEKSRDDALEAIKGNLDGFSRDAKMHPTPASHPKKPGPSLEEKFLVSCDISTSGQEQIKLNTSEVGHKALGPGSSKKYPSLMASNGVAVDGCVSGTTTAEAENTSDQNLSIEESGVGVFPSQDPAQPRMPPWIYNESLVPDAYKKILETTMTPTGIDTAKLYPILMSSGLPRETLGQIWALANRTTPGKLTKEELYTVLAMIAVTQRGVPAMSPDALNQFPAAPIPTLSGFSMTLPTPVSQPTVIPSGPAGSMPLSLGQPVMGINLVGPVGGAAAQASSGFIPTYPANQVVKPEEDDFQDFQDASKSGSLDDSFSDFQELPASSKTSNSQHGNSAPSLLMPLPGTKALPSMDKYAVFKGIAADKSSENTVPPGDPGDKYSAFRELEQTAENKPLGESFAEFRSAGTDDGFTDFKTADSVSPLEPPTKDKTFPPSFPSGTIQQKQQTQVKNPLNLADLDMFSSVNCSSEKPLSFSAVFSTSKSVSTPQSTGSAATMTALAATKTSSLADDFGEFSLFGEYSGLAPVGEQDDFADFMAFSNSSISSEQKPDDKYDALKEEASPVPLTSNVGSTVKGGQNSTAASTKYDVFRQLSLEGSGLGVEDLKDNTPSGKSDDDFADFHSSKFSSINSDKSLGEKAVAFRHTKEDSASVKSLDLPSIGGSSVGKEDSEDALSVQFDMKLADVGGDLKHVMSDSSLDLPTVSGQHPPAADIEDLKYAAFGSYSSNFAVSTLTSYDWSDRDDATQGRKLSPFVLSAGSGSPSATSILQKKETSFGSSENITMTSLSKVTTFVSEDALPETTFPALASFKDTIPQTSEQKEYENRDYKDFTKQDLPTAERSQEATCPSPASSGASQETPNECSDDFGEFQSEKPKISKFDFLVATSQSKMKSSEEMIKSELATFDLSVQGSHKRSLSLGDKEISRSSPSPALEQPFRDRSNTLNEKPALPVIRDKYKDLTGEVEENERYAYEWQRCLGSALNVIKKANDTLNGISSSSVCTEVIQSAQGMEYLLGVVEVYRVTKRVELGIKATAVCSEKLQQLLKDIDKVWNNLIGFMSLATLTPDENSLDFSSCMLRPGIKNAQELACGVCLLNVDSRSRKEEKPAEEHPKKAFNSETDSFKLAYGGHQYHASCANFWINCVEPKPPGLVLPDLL
UniProt Q9Y2Z0: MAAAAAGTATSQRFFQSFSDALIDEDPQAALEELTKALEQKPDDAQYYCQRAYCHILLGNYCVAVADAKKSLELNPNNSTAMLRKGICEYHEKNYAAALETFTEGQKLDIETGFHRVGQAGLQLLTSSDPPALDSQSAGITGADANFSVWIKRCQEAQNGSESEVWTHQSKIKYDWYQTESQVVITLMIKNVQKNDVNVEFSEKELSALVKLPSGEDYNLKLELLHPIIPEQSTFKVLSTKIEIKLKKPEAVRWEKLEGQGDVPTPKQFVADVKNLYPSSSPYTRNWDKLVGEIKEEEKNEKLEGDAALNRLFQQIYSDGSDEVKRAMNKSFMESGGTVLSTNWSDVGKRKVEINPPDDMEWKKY
UniProt Q9Y2K9: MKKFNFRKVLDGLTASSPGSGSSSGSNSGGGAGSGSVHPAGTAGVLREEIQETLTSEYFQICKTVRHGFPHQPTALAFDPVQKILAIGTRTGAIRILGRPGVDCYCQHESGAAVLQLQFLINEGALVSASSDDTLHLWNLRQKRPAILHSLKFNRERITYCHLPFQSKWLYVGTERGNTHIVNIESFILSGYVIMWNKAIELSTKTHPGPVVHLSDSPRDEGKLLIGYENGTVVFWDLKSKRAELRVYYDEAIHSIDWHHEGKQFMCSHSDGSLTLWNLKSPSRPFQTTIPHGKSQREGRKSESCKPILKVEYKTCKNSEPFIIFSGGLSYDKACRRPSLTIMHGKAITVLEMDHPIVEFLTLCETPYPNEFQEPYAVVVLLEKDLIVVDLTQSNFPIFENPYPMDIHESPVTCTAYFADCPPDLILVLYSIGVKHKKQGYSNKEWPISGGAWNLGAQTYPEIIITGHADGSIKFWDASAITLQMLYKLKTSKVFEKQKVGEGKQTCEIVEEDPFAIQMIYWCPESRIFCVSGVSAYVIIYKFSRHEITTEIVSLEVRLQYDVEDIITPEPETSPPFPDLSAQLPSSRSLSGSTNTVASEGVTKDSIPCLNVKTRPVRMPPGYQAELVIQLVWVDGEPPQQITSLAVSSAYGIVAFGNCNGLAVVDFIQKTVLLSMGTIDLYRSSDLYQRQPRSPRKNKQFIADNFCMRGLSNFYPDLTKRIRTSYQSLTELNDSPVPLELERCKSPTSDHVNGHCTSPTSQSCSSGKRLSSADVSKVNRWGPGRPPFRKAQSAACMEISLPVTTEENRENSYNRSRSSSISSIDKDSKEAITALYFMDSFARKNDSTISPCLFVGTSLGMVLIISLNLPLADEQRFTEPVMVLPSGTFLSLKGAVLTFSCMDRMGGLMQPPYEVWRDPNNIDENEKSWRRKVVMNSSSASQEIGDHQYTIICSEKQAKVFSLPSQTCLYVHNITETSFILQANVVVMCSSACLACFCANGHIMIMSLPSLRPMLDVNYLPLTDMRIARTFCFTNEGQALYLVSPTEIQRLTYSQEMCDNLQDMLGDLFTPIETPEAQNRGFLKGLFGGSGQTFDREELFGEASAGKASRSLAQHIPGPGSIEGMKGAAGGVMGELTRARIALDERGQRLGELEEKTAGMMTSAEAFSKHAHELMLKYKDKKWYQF

How the values were obtained:
Assay in all cases: log2 fold change, soluble protein after heating vs DMSO (PISA); higher = thermal stabilisation; K562 cells, 10 uM, 30 min; active = over 0.2 and 3.5 SD of the protein, either way, in both replicates (recomputed)
[1] = compound: CN1CCN(CCOc2cc(OC3CCOCC3)c3c(Nc4c(Cl)ccc5c4OCO5)ncnc3c2)CC1 [saracatinib]
In short: (§1)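 Soluble protein was defined as the supernatant after 21,000xg for 90 min. It came from K562 cells at 2×10^6 cells/mL given 10 μM compound for 30 min, heated in aliquots for 3 min across 48°C-58°C, pooled, and extracted in PBS with 0.5% NP-40 at 4°C, and was quantified by TMTpro 16plex LC-MS/MS with equalised channel sums. Thermal stability against control samples, from duplicates, is reported as log2 fold change.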

[2] = compound: CN1CCN(c2nc(C3=C(c4c[nH]c5ccccc45)C(=O)NC3=O)c3ccccc3n2)CC1 [sotrastaurin]
In short: as §1

[3] = compound: CN1CC[C@H](c2c(O)cc(O)c3c(=O)cc(-c4ccccc4Cl)oc23)[C@H](O)C1 [alvocidib]
In short: as §1

[4] = compound: CN1CCc2c(c3ccccc3n2Cc2ccc(C(=O)NO)cc2)C1 [Tubastatin A]
In short: as §1

[5] = compound: CNC(=O)C1=CC=CC=C1NC2=NC(=NC=C2Cl)NC3=C(C=C(C=C3)N4CCOCC4)OC
In short: as §1

[6] = compound: CNC(=O)c1ccc(Nc2ncc(C(F)(F)F)c(NCc3nccnc3N(C)S(C)(=O)=O)n2)cc1 [defactinib]
In short: as §1

[7] = compound: CNc1nc(-c2ccc3c(N)n[nH]c3c2)cc(N2C[C@@H](C(=O)NC3CCCCC3)CC[C@H]2C)n1
In short: as §1

[8] = compound: COC(=O)[C@H](CCSC)NC(=O)C1=C(C=C(C=C1)NC[C@H](CS)N)C2=CC=CC=C2
In short: as §1

[9] = compound: COC1=CC=C(C=C1)CN2C=CC3=C2C=C(C=C3)C(=O)NO
In short: as §1

[10] = compound: CON(C)C(=O)N1N=C(c2cc(F)ccc2F)S[C@@]1(CCCN)c1ccccc1 [filanesib]
In short: as §1

[11] = compound: CO[C@H]1C[C@@H]2CC[C@@H](C)[C@@](O)(O2)C(=O)C(=O)N2CCCC[C@H]2C(=O)O[C@H]([C@H](C)C[C@@H]2CC[C@H](n3cnnn3)[C@H](OC)C2)CC(=O)[C@H](C)/C=C(\C)[C@@H](O)[C@@H](OC)C(=O)[C@H](C)C[C@H](C)/C=C/C=C/C=C/1C [zotarolimus]
In short: as §1

[12] = compound: COc1cc(Nc2ncc3c(n2)-c2ccc(Cl)cc2C(c2c(F)cccc2OC)=NC3)ccc1C(=O)O [alisertib]
In short: as §1

[13] = compound: COc1cc2nc(-c3cc(F)ccc3O)nc(N[C@@H]3CNC[C@H]3C(C)(C)O)c2cc1OC
In short: as §1

[14] = compound: COc1cccc2cc(-c3nc([C@H]4CC[C@H](C(=O)O)CC4)n4ncnc(N)c34)[nH]c12
In short: as §1

[15] = compound: CS(=O)(=O)CCNCc1ccc(-c2ccc3ncnc(Nc4ccc(OCc5cccc(F)c5)c(Cl)c4)c3c2)o1 [lapatinib]
In short: as §1

[16] = compound: CS(=O)(=O)N1CCN(Cc2cc3nc(-c4cccc5[nH]ncc45)nc(N4CCOCC4)c3s2)CC1 [pictilisib]
In short: as §1

[17] = compound: CNCc1ccc(-c2[nH]c3cc(F)cc4c3c2CCNC4=O)cc1 [rucaparib]
In short: as §1

[18] = compound: COC(=O)N[C@@H](C)CNc1nccc(-c2cn(C(C)C)nc2-c2cc(Cl)cc(NS(C)(=O)=O)c2F)n1 [encorafenib]
In short: as §1

[19] = compound: COc1cc(C(=O)O)ccc1NC(=O)[C@@H]1N[C@@H](CC(C)(C)C)[C@](C#N)(c2ccc(Cl)cc2F)[C@H]1c1cccc(Cl)c1F [idasanutlin]
In short: as §1

[20] = compound: COc1cc2ncnc(Nc3ccc(F)c(Cl)c3)c2cc1OCCCN1CCOCC1 [gefitinib]
In short: as §1

Measured: log2 fold change

TAF9B (UniProt Q9HBM6)
inactive: [1] 0.12 | [2] 0.161 | [3] 0.077 | [4] -0.123 | [5] 0.032 | [6] 0.002 | [7] 0.135 | [8] 0.017 | [9] -0.281 | [10] -0.004 | [11] 0.025 | [12] -0.534 | [13] -0.026 | [14] -0.193 | [15] -0.042 | [16] -0.037

STRIP2 (UniProt Q9ULQ0)
inactive: [1] -0.003 | [2] -0.131 | [3] -0.007 | [4] -0.03 | [5] -0.005 | [6] -0.047 | [17] -0.074 | [7] 0.091 | [18] 0.084 | [8] 0.051 | [10] -0.137 | [11] 0.001 | [19] -0.143 | [12] -0.006 | [13] 0.006 | [20] 0.007 | [14] -0.057 | [15] 0.035 | [16] 0.032

STT3A (UniProt P46977)
inactive: [1] -0.002 | [2] -0.008 | [3] 0.052 | [4] -0.037 | [5] 0.003 | [6] 0.046 | [17] -0.007 | [7] -0.026 | [18] 0.04 | [8] -0.008 | [9] -0.096 | [10] -0.032 | [11] -0.005 | [19] -0.027 | [12] -0.036 | [13] -0.044 | [20] -0.003 | [14] -0.006 | [15] 0.03 | [16] 0.011

TAGLN3 (UniProt Q9UI15)
inactive: [1] -0.105 | [2] -0.015 | [3] 0.034 | [4] -0.052 | [6] -0.002 | [7] 0 | [8] -0.096 | [9] -0.341 | [10] 0.024 | [11] -0.159 | [19] 0.023 | [12] 0.083 | [14] 0.155

TAF15 (UniProt Q92804)
inactive: [1] -0.053 | [2] 0.115 | [3] 0.138 | [4] -0.024 | [5] -0.024 | [6] 0.106 | [17] 0.191 | [7] -0.01 | [18] -0.04 | [8] -0.012 | [9] -0.02 | [10] 0.165 | [11] -0.051 | [19] 0.109 | [12] -0.064 | [13] -0.032 | [20] -0.063 | [14] 0.037 | [15] 0.004 | [16] -0.071

SUCO (UniProt Q9UBS9)
inactive: [1] -0.016 | [2] 0 | [3] 0.054 | [4] 0.048 | [5] -0.079 | [6] 0.199 | [17] -0.059 | [7] 0.161 | [18] 0.012 | [8] 0.095 | [9] 0.029 | [10] 0.107 | [11] 0.21 | [19] 0.003 | [12] -0.294 | [13] 0.231 | [14] -0.127 | [15] 0.029 | [16] 0.075

TAF11 (UniProt Q15544)
inactive: [1] 0.089 | [2] 0.068 | [3] 0.067 | [4] 0 | [5] -0.014 | [7] -0.11 | [10] 0.176 | [11] -0.004 | [19] 0.116 | [12] -0.179 | [13] -0.089 | [14] -0.095 | [15] -0.01 | [16] -0.001

SUMF2 (UniProt Q8NBJ7)
inactive: [1] -0.033 | [2] -0.042 | [3] -0.058 | [4] -0.012 | [5] 0.025 | [6] -0.033 | [17] 0.059 | [7] -0.068 | [18] 0.037 | [8] 0.023 | [9] -0.035 | [10] -0.06 | [11] 0.01 | [19] 0 | [12] -0.031 | [13] -0.011 | [20] 0.024 | [14] -0.006 | [15] 0.012 | [16] -0.112

TAF2 (UniProt Q6P1X5)
inactive: [1] -0.189 | [2] 0.002 | [3] 0.113 | [4] -0.179 | [6] 0.102 | [17] 0.105 | [7] 0.061 | [18] -0.009 | [8] 0.064 | [9] -0.136 | [10] 0.225 | [11] 0.297 | [19] 0.321 | [12] -0.059 | [13] 0.287 | [20] 0.027 | [14] -0.159 | [15] -0.121 | [16] 0.239

SYNRG (UniProt Q9UMZ2)
inactive: [1] -0.039 | [2] -0.083 | [3] -0.053 | [4] 0.002 | [5] 0.041 | [6] -0.028 | [17] -0.017 | [7] -0.012 | [18] -0.001 | [8] 0.009 | [9] -0.006 | [10] 0.031 | [11] -0.024 | [19] -0.062 | [12] -0.085 | [13] 0.016 | [20] -0.062 | [14] 0.03 | [15] 0.011 | [16] 0.046

STOML2 (UniProt Q9UJZ1)
inactive: [1] -0.001 | [2] 0.027 | [3] -0.029 | [4] 0.009 | [5] -0.013 | [6] -0.006 | [17] -0.036 | [7] -0.011 | [18] -0.042 | [8] 0.008 | [9] 0.041 | [10] -0.011 | [11] 0.018 | [19] 0.018 | [12] 0.016 | [13] 0.022 | [20] -0.007 | [14] 0.016 | [15] -0.014 | [16] -0.076

SULT1A3 isoform 3 (UniProt P0DMM9)
inactive: [1] -0.058 | [2] 0.021 | [3] -0.194 | [4] -0.006 | [5] 0.119 | [6] -0.114 | [17] -0.088 | [7] 0.13 | [18] -0.009 | [8] -0.045 | [9] -0.02 | [10] -0.085 | [11] -0.076 | [19] 0.007 | [12] 0.267 | [13] 0.083 | [20] -0.004 | [14] -0.055 | [15] -0.06 | [16] -0.124

TAF8 isoform 2 (UniProt Q7Z7C8)
inactive: [1] 0.014 | [2] -0.075 | [3] -0.031 | [4] 0.131 | [5] -0.069 | [6] -0.119 | [17] 0.043 | [7] -0.026 | [18] -0.145 | [8] -0.04 | [9] -0.054 | [10] -0.103 | [11] -0.008 | [19] -0.008 | [12] -0.147 | [13] -0.054 | [20] 0.038 | [14] -0.016 | [15] 0.056 | [16] -0.018

TATDN1 (UniProt Q6P1N9)
inactive: [1] 0.076 | [2] 0.077 | [3] 0.05 | [4] -0.048 | [5] -0.016 | [6] 0.005 | [17] -0.033 | [7] -0.027 | [18] -0.027 | [8] 0.06 | [9] -0.006 | [10] -0.001 | [11] -0.067 | [19] 0.017 | [12] -0.046 | [13] 0.001 | [20] 0.026 | [14] 0.04 | [15] -0.002 | [16] -0.04

SUGT1 (UniProt Q9Y2Z0)
inactive: [1] 0.038 | [2] -0.014 | [3] -0.039 | [4] -0.014 | [5] 0.014 | [6] -0.071 | [17] -0.063 | [7] -0.021 | [18] 0.01 | [8] -0.005 | [9] 0.018 | [10] -0.062 | [11] 0.026 | [19] 0.004 | [12] -0.069 | [13] 0 | [20] -0.001 | [14] -0.009 | [15] -0.002 | [16] 0.023

STXBP5L (UniProt Q9Y2K9)
inactive: [1] 0.089 | [2] 0 | [3] -0.096 | [5] 0.02 | [17] -0.134 | [7] -0.079 | [18] -0.024 | [9] 0.299 | [10] -0.133 | [11] 0.027 | [13] 0.165 | [20] -0.016 | [15] -0.027 | [16] -0.442

STX5 (UniProt Q13190)
inactive: [1] -0.023 | [2] -0.107 | [3] -0.053 | [4] 0.003 | [5] -0.05 | [6] -0.063 | [17] 0.084 | [7] 0.017 | [18] 0.077 | [8] -0.161 | [9] 0.007 | [10] 0.065 | [11] 0.037 | [19] -0.186 | [12] -0.077 | [13] 0.117 | [20] 0.039 | [14] -0.13 | [15] 0.126 | [16] 0.033
